Values of other authors in patent publication US20080234197A1, “Method(s) of stabilizing and potentiating the actions and administration of brain-derived neurotrophic factor (BDNF)” (priority 2007, published 2008).
At least one structure is not confirmed: it was looked up by name or label, or the drawing left a doubt.

Tests used:
[1] = system: syntaxin 3; details: upon addition of fatty acid
[2] = system: rat primary cortical astrocytes; details: in vitro, blocked by a p38 MAPK inhibitor

Compound: CC/C=C\C/C=C\C/C=C\C/C=C\C/C=C\C/C=C\CCC(=O)O [DHA, docosahexaenoic acid]
- intrinsic tyrosine fluorescence of syntaxin 3 [1]: marked changes
- BDNF protein expression [2]: induced
